Here are results for 26 targets from the supplement of paper PMC10849652.

By UniProt entry, the sequences of proteins in these tests, tags left out. Where a name states a change or a piece, a line headed by the entry shows the natural chain unless it says otherwise.
UniProt Q9Y6I8: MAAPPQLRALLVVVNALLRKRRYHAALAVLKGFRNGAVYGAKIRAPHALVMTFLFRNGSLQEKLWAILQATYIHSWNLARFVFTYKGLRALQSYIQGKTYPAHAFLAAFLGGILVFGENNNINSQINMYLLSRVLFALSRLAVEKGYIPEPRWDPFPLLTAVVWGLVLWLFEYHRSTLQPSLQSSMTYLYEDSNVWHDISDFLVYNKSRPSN
UniProt P61006: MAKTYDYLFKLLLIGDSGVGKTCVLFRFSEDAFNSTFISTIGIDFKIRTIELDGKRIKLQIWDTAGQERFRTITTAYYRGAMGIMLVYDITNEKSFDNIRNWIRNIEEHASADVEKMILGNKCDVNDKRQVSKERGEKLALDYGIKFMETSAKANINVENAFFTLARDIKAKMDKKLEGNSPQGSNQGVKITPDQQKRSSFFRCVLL
UniProt Q13905: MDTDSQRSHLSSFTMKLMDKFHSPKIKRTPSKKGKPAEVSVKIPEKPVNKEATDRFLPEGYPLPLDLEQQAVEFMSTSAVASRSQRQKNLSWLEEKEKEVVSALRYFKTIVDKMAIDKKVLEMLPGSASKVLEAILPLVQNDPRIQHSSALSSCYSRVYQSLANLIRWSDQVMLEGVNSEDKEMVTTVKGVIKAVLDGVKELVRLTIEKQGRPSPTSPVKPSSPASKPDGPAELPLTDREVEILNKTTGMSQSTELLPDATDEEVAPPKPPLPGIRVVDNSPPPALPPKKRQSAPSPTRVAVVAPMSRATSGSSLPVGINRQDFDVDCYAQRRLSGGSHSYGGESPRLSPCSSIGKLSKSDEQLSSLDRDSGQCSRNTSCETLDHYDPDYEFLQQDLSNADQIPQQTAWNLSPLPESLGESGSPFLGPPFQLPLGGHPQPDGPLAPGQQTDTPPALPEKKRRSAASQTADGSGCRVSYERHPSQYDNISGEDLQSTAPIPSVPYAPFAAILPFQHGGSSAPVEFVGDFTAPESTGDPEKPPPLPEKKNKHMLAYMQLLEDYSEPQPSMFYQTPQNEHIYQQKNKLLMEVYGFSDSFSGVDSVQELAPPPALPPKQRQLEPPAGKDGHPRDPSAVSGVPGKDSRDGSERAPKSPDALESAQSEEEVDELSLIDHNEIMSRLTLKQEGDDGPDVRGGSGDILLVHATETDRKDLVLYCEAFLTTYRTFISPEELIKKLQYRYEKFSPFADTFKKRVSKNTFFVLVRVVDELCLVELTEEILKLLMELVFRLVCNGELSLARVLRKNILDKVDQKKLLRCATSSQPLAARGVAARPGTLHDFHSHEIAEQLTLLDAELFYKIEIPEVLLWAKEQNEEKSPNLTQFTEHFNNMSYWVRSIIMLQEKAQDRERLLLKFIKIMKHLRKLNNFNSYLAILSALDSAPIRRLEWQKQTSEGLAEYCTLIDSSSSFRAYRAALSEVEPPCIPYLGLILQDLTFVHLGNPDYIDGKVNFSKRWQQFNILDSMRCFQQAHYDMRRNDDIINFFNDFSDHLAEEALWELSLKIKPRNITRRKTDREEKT
UniProt Q9UKM9: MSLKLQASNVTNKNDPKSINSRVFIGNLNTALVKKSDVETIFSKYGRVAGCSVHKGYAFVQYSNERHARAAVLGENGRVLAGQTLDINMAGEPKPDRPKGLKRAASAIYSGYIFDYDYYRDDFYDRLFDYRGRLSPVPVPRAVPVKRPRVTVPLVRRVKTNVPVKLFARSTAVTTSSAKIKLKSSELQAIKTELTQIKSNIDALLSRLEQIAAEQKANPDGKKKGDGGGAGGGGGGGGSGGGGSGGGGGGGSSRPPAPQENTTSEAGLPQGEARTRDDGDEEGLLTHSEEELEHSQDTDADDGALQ
UniProt Q8WU10: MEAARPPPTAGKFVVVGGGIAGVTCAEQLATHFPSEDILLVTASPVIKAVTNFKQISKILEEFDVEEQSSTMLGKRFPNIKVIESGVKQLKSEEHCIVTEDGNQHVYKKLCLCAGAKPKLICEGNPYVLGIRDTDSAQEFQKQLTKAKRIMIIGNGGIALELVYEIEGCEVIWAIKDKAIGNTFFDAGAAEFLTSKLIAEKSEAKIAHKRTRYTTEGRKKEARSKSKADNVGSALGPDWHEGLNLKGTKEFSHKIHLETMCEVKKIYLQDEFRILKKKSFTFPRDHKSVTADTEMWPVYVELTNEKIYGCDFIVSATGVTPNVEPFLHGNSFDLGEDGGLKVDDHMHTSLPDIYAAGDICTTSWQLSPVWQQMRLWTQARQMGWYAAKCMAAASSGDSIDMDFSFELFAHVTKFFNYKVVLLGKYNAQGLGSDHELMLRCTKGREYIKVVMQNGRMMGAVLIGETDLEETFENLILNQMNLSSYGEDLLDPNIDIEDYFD
UniProt Q8WUD1: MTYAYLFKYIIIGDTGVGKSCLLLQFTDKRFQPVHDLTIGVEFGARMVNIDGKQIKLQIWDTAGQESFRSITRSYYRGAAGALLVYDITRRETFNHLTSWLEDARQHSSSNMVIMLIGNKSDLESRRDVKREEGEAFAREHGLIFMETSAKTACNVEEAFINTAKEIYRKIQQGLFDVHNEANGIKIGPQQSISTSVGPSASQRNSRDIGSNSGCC
UniProt Q969Q5: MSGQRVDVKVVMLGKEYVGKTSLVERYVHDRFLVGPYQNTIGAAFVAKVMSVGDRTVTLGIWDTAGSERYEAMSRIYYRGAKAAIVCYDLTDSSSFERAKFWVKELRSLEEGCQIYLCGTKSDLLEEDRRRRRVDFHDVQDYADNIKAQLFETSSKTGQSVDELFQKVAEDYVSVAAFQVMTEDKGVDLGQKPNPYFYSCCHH
UniProt O95716: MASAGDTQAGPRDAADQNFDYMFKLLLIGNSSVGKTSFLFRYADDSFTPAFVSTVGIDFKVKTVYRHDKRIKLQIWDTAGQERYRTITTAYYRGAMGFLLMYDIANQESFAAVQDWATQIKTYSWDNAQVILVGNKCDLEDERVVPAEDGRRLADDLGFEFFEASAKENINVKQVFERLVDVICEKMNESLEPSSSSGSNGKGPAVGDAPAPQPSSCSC
UniProt P51153: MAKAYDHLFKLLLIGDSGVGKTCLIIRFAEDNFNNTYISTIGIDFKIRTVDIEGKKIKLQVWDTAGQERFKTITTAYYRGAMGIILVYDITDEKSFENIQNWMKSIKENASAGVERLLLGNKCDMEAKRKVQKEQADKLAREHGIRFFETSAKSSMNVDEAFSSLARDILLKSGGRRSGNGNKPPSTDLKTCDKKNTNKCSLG
UniProt Q6GYQ0: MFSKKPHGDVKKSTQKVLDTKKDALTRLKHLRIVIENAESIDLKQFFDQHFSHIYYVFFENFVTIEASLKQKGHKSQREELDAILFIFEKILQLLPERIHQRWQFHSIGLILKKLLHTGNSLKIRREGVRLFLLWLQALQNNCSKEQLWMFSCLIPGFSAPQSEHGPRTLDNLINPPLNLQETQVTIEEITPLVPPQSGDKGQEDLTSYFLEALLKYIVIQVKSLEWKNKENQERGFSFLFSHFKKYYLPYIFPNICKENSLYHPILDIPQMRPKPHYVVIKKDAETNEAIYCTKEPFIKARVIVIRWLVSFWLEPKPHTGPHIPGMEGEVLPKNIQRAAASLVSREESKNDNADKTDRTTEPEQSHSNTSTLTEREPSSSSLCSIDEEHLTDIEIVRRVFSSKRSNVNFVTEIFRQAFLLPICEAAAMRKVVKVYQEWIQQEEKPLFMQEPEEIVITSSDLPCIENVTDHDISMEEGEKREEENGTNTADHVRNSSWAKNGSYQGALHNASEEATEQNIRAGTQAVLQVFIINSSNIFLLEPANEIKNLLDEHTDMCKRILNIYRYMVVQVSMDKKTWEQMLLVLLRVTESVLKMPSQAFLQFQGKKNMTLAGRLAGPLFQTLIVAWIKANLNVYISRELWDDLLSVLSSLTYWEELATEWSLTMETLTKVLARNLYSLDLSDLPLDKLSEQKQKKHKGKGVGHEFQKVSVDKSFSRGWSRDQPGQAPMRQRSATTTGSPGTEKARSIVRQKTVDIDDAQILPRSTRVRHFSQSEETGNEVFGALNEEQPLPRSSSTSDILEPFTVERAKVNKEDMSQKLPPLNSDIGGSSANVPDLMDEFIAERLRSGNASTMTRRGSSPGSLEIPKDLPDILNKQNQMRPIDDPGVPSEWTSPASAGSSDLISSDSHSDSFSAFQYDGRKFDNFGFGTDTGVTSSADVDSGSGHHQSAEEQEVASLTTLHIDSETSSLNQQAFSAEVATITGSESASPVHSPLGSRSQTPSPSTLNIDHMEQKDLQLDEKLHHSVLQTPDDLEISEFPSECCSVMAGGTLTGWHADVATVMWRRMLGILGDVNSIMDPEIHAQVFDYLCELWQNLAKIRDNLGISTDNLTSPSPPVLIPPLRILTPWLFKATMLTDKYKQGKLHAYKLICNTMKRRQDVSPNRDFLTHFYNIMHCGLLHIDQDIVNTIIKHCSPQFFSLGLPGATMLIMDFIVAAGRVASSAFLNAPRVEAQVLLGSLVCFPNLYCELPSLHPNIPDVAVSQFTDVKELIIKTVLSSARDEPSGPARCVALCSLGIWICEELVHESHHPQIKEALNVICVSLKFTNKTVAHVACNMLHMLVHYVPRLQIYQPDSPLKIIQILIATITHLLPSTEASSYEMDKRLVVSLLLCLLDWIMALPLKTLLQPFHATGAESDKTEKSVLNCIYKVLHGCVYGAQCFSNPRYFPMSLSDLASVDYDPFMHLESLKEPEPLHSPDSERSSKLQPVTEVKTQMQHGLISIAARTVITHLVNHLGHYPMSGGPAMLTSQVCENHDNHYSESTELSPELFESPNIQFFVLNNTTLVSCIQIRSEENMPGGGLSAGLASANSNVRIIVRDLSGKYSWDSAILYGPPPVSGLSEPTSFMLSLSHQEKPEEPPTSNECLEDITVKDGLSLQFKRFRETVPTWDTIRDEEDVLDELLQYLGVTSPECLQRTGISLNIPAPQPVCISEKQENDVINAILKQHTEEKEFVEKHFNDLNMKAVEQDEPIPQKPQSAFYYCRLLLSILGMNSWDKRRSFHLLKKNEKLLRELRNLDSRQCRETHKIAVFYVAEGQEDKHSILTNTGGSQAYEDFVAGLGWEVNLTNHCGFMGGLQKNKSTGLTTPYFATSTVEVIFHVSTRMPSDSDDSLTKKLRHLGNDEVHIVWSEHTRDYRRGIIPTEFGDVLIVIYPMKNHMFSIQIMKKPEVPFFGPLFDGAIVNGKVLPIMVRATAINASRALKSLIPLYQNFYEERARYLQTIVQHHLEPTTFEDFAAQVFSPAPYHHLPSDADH
UniProt P52306: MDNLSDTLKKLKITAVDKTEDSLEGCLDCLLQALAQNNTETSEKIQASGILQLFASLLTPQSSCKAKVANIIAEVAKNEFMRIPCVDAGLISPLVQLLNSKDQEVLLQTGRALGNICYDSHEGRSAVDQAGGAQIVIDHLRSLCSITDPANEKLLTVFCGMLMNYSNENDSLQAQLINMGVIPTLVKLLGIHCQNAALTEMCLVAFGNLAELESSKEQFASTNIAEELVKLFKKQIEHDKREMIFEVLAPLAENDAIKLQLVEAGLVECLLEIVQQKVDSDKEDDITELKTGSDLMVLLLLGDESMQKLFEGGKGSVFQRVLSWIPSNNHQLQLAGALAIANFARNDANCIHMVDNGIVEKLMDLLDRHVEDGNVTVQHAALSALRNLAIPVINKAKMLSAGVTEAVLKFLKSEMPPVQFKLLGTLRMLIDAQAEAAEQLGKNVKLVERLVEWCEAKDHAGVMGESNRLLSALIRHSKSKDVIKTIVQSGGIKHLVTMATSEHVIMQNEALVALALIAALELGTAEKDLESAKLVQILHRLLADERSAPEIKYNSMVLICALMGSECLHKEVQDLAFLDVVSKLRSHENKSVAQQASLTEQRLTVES
UniProt P43487, whole entry, looked up: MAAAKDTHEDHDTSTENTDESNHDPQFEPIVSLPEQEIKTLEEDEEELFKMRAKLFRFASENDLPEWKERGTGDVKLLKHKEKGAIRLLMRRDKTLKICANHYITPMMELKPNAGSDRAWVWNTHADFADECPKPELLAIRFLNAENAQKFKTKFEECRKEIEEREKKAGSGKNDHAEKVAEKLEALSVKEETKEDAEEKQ
UniProt Q13637: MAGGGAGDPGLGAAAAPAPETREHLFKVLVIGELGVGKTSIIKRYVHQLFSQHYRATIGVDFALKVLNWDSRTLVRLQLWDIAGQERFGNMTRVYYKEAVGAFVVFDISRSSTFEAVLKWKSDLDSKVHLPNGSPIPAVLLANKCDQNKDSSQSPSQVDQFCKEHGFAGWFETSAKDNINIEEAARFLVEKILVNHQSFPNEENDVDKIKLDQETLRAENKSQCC
UniProt Q15771: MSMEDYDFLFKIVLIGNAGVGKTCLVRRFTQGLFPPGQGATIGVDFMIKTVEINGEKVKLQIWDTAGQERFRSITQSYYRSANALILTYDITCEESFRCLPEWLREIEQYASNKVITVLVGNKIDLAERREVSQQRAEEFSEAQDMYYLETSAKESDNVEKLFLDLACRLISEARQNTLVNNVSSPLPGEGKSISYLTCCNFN
UniProt Q96I23: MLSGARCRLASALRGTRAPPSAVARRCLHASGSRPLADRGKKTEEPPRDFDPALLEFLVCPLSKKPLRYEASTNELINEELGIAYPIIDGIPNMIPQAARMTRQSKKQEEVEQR

Holding throughout (test): log2 fold change, soluble protein after heating vs DMSO (PISA); higher = thermal stabilisation; K562 lysate, 10 uM; active = over 0.2 and 3.5 SD of the protein, either way, in both replicates (recomputed)
Compound in experiment [1]: NCC(=O)Nc1ccc(-n2nc(C(F)(F)F)cc2-c2ccc3c(ccc4ccccc43)c2)cc1
In outline:
(§1)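 Thermal stability, expressed as log-two fold change relative to solvent controls, is given from duplicates. Crude K562 extract in PBS pH 7.4 with 1 mM MgCl2, at 1 mg/mL protein, was treated with 10 μM compound for 30 min and heated in aliquots for 3 min across 48°C-58°C. After pooling, adjustment to 0.5% NP-40 at 4°C and centrifugation at 21,000xg for 90 min, supernatant protein was measured by TMTpro 16plex LC-MS/MS with channel sums equalised.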

Compound in the next experiment: O=C(CCCCCCC(=O)Nc1ccccc1)NO [vorinostat]
In outline:
as §1

Compound in the next experiment: O=C(O)c1ccc2c(c1)nc(Nc1cccc(Cl)c1)c1ccncc12 [silmitasertib]
In outline:
as §1

Compound in experiment [2]: O=C1NC(=O)C(c2cnc3ccccn23)=C1c1cn2c3c(cc(F)cc13)CN(C(=O)N1CCCCC1)CC2
In outline:
as §1

Compound in a further experiment: c1cn2cc(-c3ccc4cn[nH]c4c3)nc(Nc3ccc(N4CCOCC4)cc3)c2n1 [entospletinib]
In outline: as §1

The list shows a part of the results.

With PXMP4 (UniProt Q9Y6I8), the log2 fold change was inactive: 0.038 in experiment [1]; inactive: 0.295 with vorinostat; inactive: 0.134 in the experiment with silmitasertib; inactive: 0.021 in experiment [2]; inactive: -0.004 with entospletinib.

Turning to RAB8A (UniProt P61006), the log2 fold change in experiment [1] was inactive: -0.034; with vorinostat, inactive: 0.1; with silmitasertib, inactive: 0.051; in experiment [2], inactive: -0.103; with entospletinib, inactive: -0.003.

Turning to RAB4B isoform 2 (UniProt P61018), the log2 fold change in experiment [1] was inactive: -0.046; with vorinostat, inactive: 0.156; in the experiment with silmitasertib it was inactive: -0.005; in experiment [2] it was inactive: -0.04; with entospletinib, inactive: 0.003.

As for RAPGEF1 isoform 3 (UniProt Q13905), the log2 fold change was inactive: -0.011 in experiment [1]; inactive: -0.127 with vorinostat; inactive: 0.007 with silmitasertib; inactive: -0.046 in experiment [2]; inactive: -0.022 with entospletinib.

Regarding RABL6 (UniProt Q3YEC7), the log2 fold change in experiment [1] was inactive: -0.017; with vorinostat it was inactive: 0.074; in the experiment with silmitasertib, inactive: -0.006; in experiment [2] it was inactive: -0.014; with entospletinib, inactive: -0.003.

Take RALY (UniProt Q9UKM9): the log2 fold change in experiment [1] was inactive: -0.038; in the experiment with vorinostat, inactive: 0.07; with silmitasertib, inactive: -0.018; in experiment [2], inactive: 0.031; with entospletinib, inactive: 0.006.

Regarding PYROXD1 (UniProt Q8WU10), the log2 fold change is inactive: -0.06 in experiment [1]; inactive: -0.193 in the experiment with vorinostat; inactive: 0.035 in the experiment with silmitasertib; inactive: -0.03 in experiment [2]; inactive: -0.102 in the experiment with entospletinib.

With RAB2B (UniProt Q8WUD1), the log2 fold change was inactive: 0.029 in experiment [1]; inactive: 0.126 with vorinostat; inactive: -0.003 with silmitasertib; inactive: 0.004 in experiment [2]; inactive: -0.019 in the experiment with entospletinib.

In the case of RAB24 (UniProt Q969Q5), the log2 fold change in experiment [1] was inactive: 0.067; in the experiment with vorinostat, inactive: 0.096; in the experiment with silmitasertib it was inactive: -0.009; in experiment [2], inactive: -0.008; with entospletinib it was inactive: -0.014.

RANBP10 (UniProt Q6VN20): the log2 fold change in experiment [1] is inactive: 0.002; in the experiment with vorinostat it was inactive: -0.066; with silmitasertib it was inactive: 0.068; in experiment [2], inactive: -0.037; with entospletinib it was inactive: 0.012.

On to RAPGEF2, A0A2R8YGD3, for which the log2 fold change in experiment [1] was inactive: -0.041; in the experiment with vorinostat, inactive: 0.2; with silmitasertib it was inactive: -0.007; in experiment [2] it was inactive: 0.015; with entospletinib it was inactive: -0.046.

Consider RAB3GAP2 (UniProt Q9H2M9), for which the log2 fold change was inactive: -0.033 in experiment [1]; inactive: -0.084 with vorinostat; inactive: 0.008 with silmitasertib; inactive: -0.008 in experiment [2]; inactive: 0.026 in the experiment with entospletinib.

Turning to RAB3D (UniProt O95716), the log2 fold change in experiment [1] is inactive: 0.009; with vorinostat, inactive: 0.144; with silmitasertib it was inactive: 0.023; in experiment [2], inactive: 0.038; with entospletinib, inactive: -0.011.

As for RAB13 (UniProt P51153), the log2 fold change is inactive: -0.034 in experiment [1]; inactive: -0.056 in the experiment with vorinostat; inactive: 0.117 with silmitasertib; inactive: -0.251 in experiment [2]; inactive: -0.039 in the experiment with entospletinib.

Turning to RALGAPA1 isoform 6 (UniProt Q6GYQ0), the log2 fold change in experiment [1] is inactive: 0.047; with vorinostat, inactive: 0.034; with silmitasertib, inactive: -0.054; in experiment [2], inactive: -0.027; with entospletinib it was inactive: -0.022.

With RAP1GDS1 isoform 5 (UniProt P52306), the log2 fold change in experiment [1] is inactive: 0.004; in the experiment with vorinostat, inactive: -0.157; with silmitasertib, inactive: 0.026; in experiment [2], inactive: -0.049; in the experiment with entospletinib, inactive: 0.003.

For QRSL1 (UniProt Q9H0R6), the log2 fold change in experiment [1] was inactive: 0.066; with vorinostat, active: -0.308; with silmitasertib it was inactive: 0.051; in experiment [2], inactive: 0.028; in the experiment with entospletinib, inactive: 0.019.

For the target RANBP1 (UniProt P43487), the log2 fold change was inactive: -0.023 in experiment [1]; inactive: 0.135 with vorinostat; inactive: -0.012 in the experiment with silmitasertib; inactive: -0.019 in experiment [2]; inactive: -0.007 with entospletinib.

Turning to RAB32 (UniProt Q13637), the log2 fold change is inactive: -0.081 in experiment [1]; inactive: 0.092 in the experiment with vorinostat; inactive: -0.003 in the experiment with silmitasertib; inactive: 0.01 in experiment [2]; inactive: -0.028 with entospletinib.

For RAB30 (UniProt Q15771), the log2 fold change in experiment [1] was inactive: 0.009; with vorinostat it was inactive: 0.002; with silmitasertib, inactive: 0.109; in experiment [2], inactive: -0.099; with entospletinib it was inactive: -0.061.

In the case of RAB3A (UniProt P20336), the log2 fold change in experiment [1] is inactive: -0.021; with vorinostat, inactive: 0.085; with silmitasertib, inactive: -0.009; in experiment [2] it was inactive: -0.007; with entospletinib it was inactive: 0.046.

PYURF (UniProt Q96I23): the log2 fold change in experiment [1] was active: -0.346; with vorinostat it was inactive: -0.007; in the experiment with silmitasertib, inactive: -0.001; in experiment [2], inactive: -0.055; with entospletinib, inactive: -0.048.

As to RAD9A (UniProt Q99638), the log2 fold change in experiment [1] was inactive: 0.017; with vorinostat it was inactive: 0.009; with silmitasertib, inactive: 0.001; in experiment [2], inactive: -0.007; in the experiment with entospletinib, inactive: 0.

Take RANBP17 (UniProt Q9H2T7): the log2 fold change is inactive: 0.031 in experiment [1]; inactive: -0.192 in the experiment with vorinostat; inactive: -0.075 in the experiment with silmitasertib; inactive: -0.019 in experiment [2]; inactive: 0.03 with entospletinib.

For RALGAPB (UniProt Q86X10), the log2 fold change in experiment [1] was inactive: 0.004; with vorinostat it was active: -0.299; with silmitasertib, inactive: 0.017; in experiment [2], inactive: -0.017; with entospletinib, inactive: -0.029.

On to RAMAC (UniProt Q9BTL3), for which the log2 fold change in experiment [1] is inactive: -0.021; in the experiment with vorinostat it was inactive: 0.058; with silmitasertib, inactive: -0.089; in experiment [2], inactive: -0.007; in the experiment with entospletinib, inactive: 0.04.
